Values of other authors in patent US10925261B2, “Method for inducing feminization in Tilapia aurea via immersion with ethinyl estradiol” (GALLANT OCEAN INTERNATIONAL, INC., priority 2018, dated 2021).
Where two headings read alike, the source gives them in different places. For at least one compound, name, drawing or mass did not settle the structure.

Tested on: Tilapia aurea fish fry
Settings: fed for 40 days, cited from earlier work

## C#C[C@]1(O)CC[C@H]2[C@@H]3CCc4cc(O)ccc4[C@H]3CC[C@@]21C [ethinyl estradiol]
Fish feed containing 100 mg/kg
  Feminization rate (percentage of females): 94%
Fish feed containing 150 mg/kg
  Feminization rate (percentage of females): 93%
Fish feed containing 200 mg/kg
  Feminization rate (percentage of females): 98%
